Library screening results

The chains behind the UniProt entries cited, without tags or fusion partners.
UniProt E9BF75, entry or part of it: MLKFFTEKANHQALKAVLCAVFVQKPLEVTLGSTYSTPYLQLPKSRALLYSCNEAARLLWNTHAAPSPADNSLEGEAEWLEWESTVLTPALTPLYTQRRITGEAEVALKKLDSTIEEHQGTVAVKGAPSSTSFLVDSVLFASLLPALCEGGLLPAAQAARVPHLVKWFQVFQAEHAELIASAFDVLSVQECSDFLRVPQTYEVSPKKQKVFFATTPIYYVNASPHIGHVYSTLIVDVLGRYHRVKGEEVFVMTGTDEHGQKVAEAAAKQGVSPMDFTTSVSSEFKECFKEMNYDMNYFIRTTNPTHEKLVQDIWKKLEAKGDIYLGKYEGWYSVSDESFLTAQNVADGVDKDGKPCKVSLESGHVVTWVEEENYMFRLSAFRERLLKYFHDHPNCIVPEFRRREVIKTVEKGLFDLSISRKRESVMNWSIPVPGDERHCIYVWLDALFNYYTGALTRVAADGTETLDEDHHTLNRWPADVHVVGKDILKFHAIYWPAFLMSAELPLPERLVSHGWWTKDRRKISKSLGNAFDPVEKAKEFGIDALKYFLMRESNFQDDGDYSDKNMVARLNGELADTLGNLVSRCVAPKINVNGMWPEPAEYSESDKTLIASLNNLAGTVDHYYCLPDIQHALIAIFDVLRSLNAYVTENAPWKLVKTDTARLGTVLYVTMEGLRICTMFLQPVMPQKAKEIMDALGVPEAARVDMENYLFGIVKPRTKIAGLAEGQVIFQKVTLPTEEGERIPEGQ

Mtb heat-shock: 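Assay on Mycobacterium tuberculosis, filed only as a heat shock assay from Cornell; the read-out is not stated. The concentration is filed as 10 mM, unlikely as a test dose, so the dose is not known. Higher reads as stronger inhibition (inferred: compounds with an IC50 in retests scored well above the rest). About 69,000 compounds were tested under these conditions; 1.4% (about 930) showed 50% or more at least once.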
Mtb growth Cornell: 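Whole-cell assay for inhibitors of Mycobacterium tuberculosis growth, labelled Cornell in the record; the read-out is not stated. The concentration is filed as 10 mM, unlikely as a test dose, so the dose is not known. The record gives no direction; compounds strong in two other growth screens of this library score well above the rest, so higher reads as stronger inhibition. Size under these conditions: about 53,000 compounds, about 900 of them at 50% or above in at least one test.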
LdMetRS: 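Primary screen of methionyl-tRNA synthetase; the read-out is not stated. Target: Methionyl-tRNA synthetase (putative), Leishmania donovani (UniProt E9BF75). The test concentration is not given. Values are per cent inhibition. Size under these conditions: about 68,000 compounds, about 24 of them at 50% or above in at least one test.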

Results are percentages, as filed.
How 0% and 100% were set is not recorded. Most values in the screen are low, and negative values occur.
This is an unselected part of the compounds tested.
A dash means the value is not listed here; it may have been measured.

compound,Mtb heat-shock,Mtb growth Cornell,LdMetRS
COc1ccc(CCC2CCCN(C(=O)c3cnc(N)nc3C)C2)cc1 (stereo unspecified),15.86%,-,20.1%
N#Cc1c(N)nc2c(c1-c1c[nH]nc1C1CCCCC1)CC(N)CC2 (stereo unspecified),-0.7139%,-,17.65%
CCc1cc(C(F)(F)F)c2c(C3CCCN(C(=O)COC)C3)noc2n1 (stereo unspecified),-2.988%,12.01%,17.48%
CCC(O)CN1CCN(C(=O)Cc2cc(Cl)ccc2OC)CC1 (stereo unspecified),15.1%,20.85%,14.29%
CCCc1cc(C(=O)N2Cc3ccccc3C2)[nH]n1,22.99%,-1.75%,5.903%
CC(C)c1nnc(NC(=O)N2CCN(C)CC2c2ccccc2)s1 (stereo unspecified),20.44%,-14.95%,8.099%
O=C(c1ccccn1)N1CCC(S(=O)(=O)c2ccccc2)C1 (stereo unspecified),-0.8971%,-55.08%,12.74%
CNc1cc(C(=O)N2CCCCC2CCn2ccnc2C)ccn1 (stereo unspecified),-29.68%,-7.785%,13.97%
Cc1cnc2[nH]c(C(F)(F)F)c(CN3CCOCC3)c2c1,10.33%,-8.69%,1.596%
COc1cccn(Cc2nnc(-c3cccnc3)o2)c1=O,5.675%,7.024%,7.843%
CN(C)c1ccc(CNC(=O)Nc2ccc(S(C)(=O)=O)nc2)cc1,5.426%,-,14.21%
C=Cc1cccc(CN2CCCn3nc(CNS(C)(=O)=O)cc3C2)c1,21.61%,-,6.044%
O=C(c1cc(Cn2cnc3ccccc32)on1)N1CCOCC1,8.083%,-,11.34%
COC(=O)C1CCN(C(=O)Cn2nc(C)nc2-c2ccccc2)CC1,-12.66%,12.33%,3.672%
CC(NC(=O)CNS(C)(=O)=O)c1ccccc1Oc1ccccc1 (stereo unspecified),-16.87%,-,23.92%
O=C(Nc1nc2c(s1)CN(S(=O)(=O)C1CC1)CC2)c1ccc(=O)[nH]c1,-16.84%,6.684%,16.95%
CSc1ccc(CNC2CCCc3c2cnn3C)cc1 (stereo unspecified),-,-,14.86%
CC(C(=O)N1CCN(C(=O)c2ccc(F)cc2F)CC1)n1ccnc1 (stereo unspecified),7.44%,-0.6203%,21.18%
Cc1cnn(CC2CN(CC(=O)Nc3cccnc3)CCO2)c1 (stereo unspecified),-13.34%,-0.009665%,-2.55%
CCOC1COC2(CCN(Cc3ccc(F)cc3)CC2)C1.O=C(O)C(F)(F)F (stereo unspecified),-14.13%,23.16%,-
CCOCC1CN(C(=O)N(C)C)Cc2nn(C)cc21 (stereo unspecified),7.457%,35.1%,12.97%
Nc1nccc(N2CCC(c3cc(Cc4ccccc4)n[nH]3)CC2)n1,3.716%,-,10.92%
Cc1cc(C)n(CC2CCN(CC(O)COc3ccccc3)CC2)n1 (stereo unspecified),1.148%,-0.152%,9.756%
NC(=O)C(Cc1ccccc1)NS(=O)(=O)Cc1ccccc1F (stereo unspecified),4.038%,-,16.15%
CN1CCN(C(=O)c2ccc(=O)n(C)c2)c2ccccc21,3.234%,11.74%,20.63%
CCOCC1CN(C)Cc2cnn(CC3CCCC3)c21.O=C(O)C(F)(F)F.O=C(O)C(F)(F)F (stereo unspecified),-28.17%,37.98%,-
O=C(NC1CC1)N1CCCC2(CCNC2=O)C1 (stereo unspecified),12.84%,-,7.778%
[H][C@]12CN(c3ccccn3)CCN1C[C@@H](c1ccccc1)[C@@H]2CO,2.045%,23.45%,-
Cc1ccc(C(NC(=O)CCCN2CCCCC2)C(=O)O)cc1 (stereo unspecified),6.498%,-,9.804%
CN1CCN(C2COC3(CCN(c4ccc(C#N)cc4)CC3)C2)CC1.O=C(O)C(F)(F)F (stereo unspecified),-5.041%,12.05%,-
COc1ccc(CN(C)c2ccc(-c3nccn3C)nn2)cc1OC,6.196%,26.75%,9.059%
O=C(c1ccc2c(c1)OCO2)N1C[C@@H](CN2CCCCC2)[C@@H](CO)C1,-53.32%,-7.053%,15.64%
O=C(c1nccc2ccccc12)N1CCCCC1Cn1cccn1 (stereo unspecified),-0.4427%,-,11.6%
Cn1cc(CN2CC[C@@H]3[C@@H]2CCN3C(=O)Cc2cccc(F)c2)cn1,-,-,17.58%
COc1cc2c(cc1CNCc1cccnc1-n1cccn1)OC(C)C2.Cl (stereo unspecified),-19.93%,-,-
COc1ccc(C[C@H]2CN(C(=O)CS(C)(=O)=O)CC[C@H]2OC)cc1,-10.64%,-3.568%,12.89%
Cn1cc(S(=O)(=O)NCC(C)(O)c2ccsc2)cn1 (stereo unspecified),-4.504%,-58.46%,16.33%
O=C1CC[C@]2(CC[C@@H](NCc3ccc4c(c3)OCO4)CC2)N1,-,-,3.889%
Cc1cccc(-c2noc(CN3CCCC(Cn4cncn4)C3)n2)c1 (stereo unspecified),5.216%,20.44%,10.8%
Cc1nnc(NCC2(c3ccccc3)CCC2)c(C#N)c1C,-18.41%,47.49%,14.67%
Cc1nn(CCNC(C)Cn2ccnc2)c(C)c1Cl (stereo unspecified),-30.42%,12.33%,21.74%
CC(=O)N1CCOC2(CCCN(Cc3ccc(N(C)C)cc3)C2)C1 (stereo unspecified),13.05%,-10.29%,9.63%
CC(C)c1nc(C2CCCN2c2ncc(C(N)=O)cc2Cl)no1 (stereo unspecified),-7.633%,-23.87%,5.072%
CCNC(=O)NCCCn1nc2ccccn2c1=O,10.35%,-,15.64%
CCOc1ncccc1C(=O)NC1CCCN(c2ncccn2)C1 (stereo unspecified),-29.71%,-,25.14%
O=C(O)C(c1ccc(O)cc1)N1CCC(N2CCSCC2)CC1 (stereo unspecified),5.155%,12.31%,21.49%
Cc1cn(CC(=O)NC2CCN(CC3CC3)CC2)c2ccccc12,1.858%,-34.91%,15.36%
CCNC(=O)O[C@H]1COCCN(c2nc3ccccc3s2)C1,-31.36%,-,14.84%
N#Cc1cn(CCN2CCc3ccccc3C2)c(=O)[nH]c1=O,7.748%,2.749%,14.24%
CC(=O)Nc1ccc(OCc2noc(C(=O)N3CCCCCC3)n2)cc1,51.07%,1.034%,12.9%
O=C(Cn1cccn1)N1CCC(c2nnc(-c3ccsc3)o2)CC1,9.826%,10.37%,13.95%
Cc1noc(C)c1CN(C)C(=O)c1ccc(C(F)(F)F)nc1,-18.15%,-2.459%,22.83%
CC(C)(C)C(=O)N1CCC2(CNS(=O)(=O)c3cnccc3O2)C1 (stereo unspecified),-33.91%,-,2.857%
CC(=O)N1N=C(c2ccccc2)OC1C(=O)NCCc1ccc(O)cc1 (stereo unspecified),53.53%,-0.7409%,-2.5%
Cc1cccn2c(=O)cc(OC(=O)c3ccc(OC(C)C)cc3)nc12,-3.395%,31.83%,6.414%
CN(C)C(=O)C1CCC2(CCN(Cc3cnn(C)c3)CC2)C1 (stereo unspecified),-,-,14.6%
COc1ccc(Cl)cc1NCC(=O)N(Cc1cccnc1)C1CC1,-16.68%,-,18.9%
CCc1nc(C)c(C(=O)N2CCCN(Cc3cnn(C)c3)CC2)s1,12.34%,-1.38%,7.904%
O=S(=O)(Cc1ccccc1)NCc1ccnc(O)c1,4.954%,-,9.669%
CCC(CC)C(CNC(=O)Nc1cc(C)nn1C)N1CCOCC1 (stereo unspecified),12.72%,-38.65%,3.286%
Cc1cnn(C2CCCN(C(=O)Cc3cn4ccccc4n3)C2)c1 (stereo unspecified),-8.029%,-,20.14%
Cc1cc(C)n(-c2cncc(NCCNC(=O)C(C)C)n2)n1,-20.98%,10.14%,15.24%
CCOc1ccc(CCCC(=O)N2CCC(c3nnn[nH]3)CC2)cc1C,3.058%,48.28%,13.87%
c1coc(CN2CCCn3c(CN4CCOCC4)nnc3C2)c1,-,-,10.38%
Cc1nn(C)c(C)c1NC(=O)CCn1ncc2c(C)cccc21,-3.996%,8.98%,7.874%
c1coc(CN2CCn3c(COCC4CC4)nnc3C2)c1,-,-,21.8%
COc1cccc(CN2CCN(c3cccc(C(C)C)n3)CC2)c1F,-10.7%,57.83%,15.86%
Cn1cc(N2C[C@@H]3CN(S(=O)(=O)C4CC4)C[C@@H]3C2=O)cn1,-,-,9.783%
Cc1nc(CN2CCCN(Cc3nccn3C(C)C)CC2)no1,-6.27%,-43.19%,15.32%

Once more, the final 6:

{"compound": "c1coc(CN2CCCn3c(CN4CCOCC4)nnc3C2)c1", "LdMetRS": 10.38}
{"compound": "Cc1nn(C)c(C)c1NC(=O)CCn1ncc2c(C)cccc21", "Mtb heat-shock": -3.996, "Mtb growth Cornell": 8.98, "LdMetRS": 7.874}
{"compound": "c1coc(CN2CCn3c(COCC4CC4)nnc3C2)c1", "LdMetRS": 21.8}
{"compound": "COc1cccc(CN2CCN(c3cccc(C(C)C)n3)CC2)c1F", "Mtb heat-shock": -10.7, "Mtb growth Cornell": 57.83, "LdMetRS": 15.86}
{"compound": "Cn1cc(N2C[C@@H]3CN(S(=O)(=O)C4CC4)C[C@@H]3C2=O)cn1", "LdMetRS": 9.783}
{"compound": "Cc1nc(CN2CCCN(Cc3nccn3C(C)C)CC2)no1", "Mtb heat-shock": -6.27, "Mtb growth Cornell": -43.19, "LdMetRS": 15.32}

Source: ChEMBL document CHEMBL3988442, “University of Dundee, Small-Polar-MMV Screening Library” (2021).